Experimental data: patent publication US20060051406A1, “Formulation of insoluble small molecule therapeutics in lipid-based carriers” (priority 2004, published 2006)
At least one read-out could not be matched to a standard name with certainty. Some entries repeat one wording, which the source may state once for all of them.

assay: Polarizing light microscopy of lipid formulation (solubilization of compound in DOPC/PBS); format: physicochemical; conditions: DOPC film hydrated with PBS at pH 7.4; compound:lipid mole-to-mole ratio 0.0331-0.1333 (1), about 0.065 (2-5)

Solubilization of the compound in the lipid formulation (no crystals visible in the polarizing light microscopy image), complete solubilization:
CNC(=O)CCc1cccc(Nc2ncc(F)c(Nc3ccc4c(c3)NC(=O)C(F)(F)O4)n2)c1 [Compound 1], CNC(=O)CCc1cccc(Nc2ncc(F)c(Nc3ccc4c(c3)NC(=O)C(C)(C)O4)n2)c1 [Compound 2], CNC(=O)CCc1cccc(Nc2ncc(F)c(Nc3ccc(OC(F)(F)F)c(Cl)c3)n2)c1 [Compound 3], CC1(C)Oc2ccc(Nc3nc(Nc4ccc5nc(C(F)(F)F)[nH]c5c4)ncc3F)cc2NC1=O [Compound 4], CC1(C)Oc2ccc(Nc3nc(Nc4ccc5[nH]c(C(F)(F)F)nc5c4)ncc3F)nc2NC1=O [Compound 5]
